Measurements reported in PubChem BioAssay AID652243 (Drosophila RNAi Screening Center, 2013)

Test: 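Knock-downs that decrease or increase androgen receptor reporter signal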 (primary screen)
Cells: Drosophila S2R+ cells
Reagents: long dsRNA against Drosophila genes
Time to read-out: 72 h (48 h, then 24 h hormone)
Conditions: synthetic androgen R1881 at 10 nM for 24 h
Measured: 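Per-well raw luminescence of the androgen-driven firefly reporter and of the Renilla control, two replicates each, without normalisation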
Scale: firefly reporter light: higher = more light from androgen-responsive reporter; Renilla control light: higher = more constitutive control signal (cell number, transfection)
Rule for the call: 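Hit when the log firefly-to-Renilla ratio dropped or increased by a fixed fold versus the mean of GFP or LacZ controls across duplicate plates; lowering cut given as 1.5 and as 3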
Calls: active = hit: reporter lowered or raised; inactive = no hit
The screen tested about 24,000 reagents; shown is an unselected part of those with a known target gene and a result. Over the whole deposit, 246 (1%) got an active call. 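Plates not normalised; calls are printed but the firefly/Renilla ratio behind them is not deposited; fold cut for lowering reported inconsistently.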 Raw values are not corrected between plates. Reagent sequences are not shown. Not given: the amount of reagent.

gene	DRSC id	firefly reporter light, replicate 1	firefly reporter light, replicate 2	Renilla control light, replicate 1	Renilla control light, replicate 2	Outcome
CG5886	DRSC15908	96690	81142	6.44e5	6.01e5	inactive
CycK	DRSC03714	6.00e5	5.80e5	1.74e6	2.11e6	inactive
CycK	DRSC36762					inactive
CG30110	DRSC05686	1.55e5	1.21e5	4.52e5	3.38e5	inactive
nesd	DRSC02099	1.06e6	9.89e5	1.83e6	2.07e6	inactive
nesd	DRSC27779	3.46e5	2.66e5	7.11e5	7.91e5	inactive
Unc-76	DRSC18193	2.40e5	2.63e5	2.02e6	2.15e6	inactive
Unc-76	DRSC18560	3.08e5	3.59e5	2.60e6	3.61e6	inactive
Ugt37E1	DRSC02248	2.20e5	2.29e5	2.43e6	2.58e6	inactive
Ugt37E1	DRSC24769	3.59e5	3.35e5	1.38e6	5.73e5	inactive
Tsp26A	DRSC03135	2.88e5	1.84e5	2.70e6	1.82e6	inactive
eIF2Balpha	DRSC16332	1.92e5	1.16e5	1.13e6	6.85e5	inactive
CG13690	DRSC00359	93306	55615	5.51e5	4.54e5	inactive
CG30094	DRSC22268	7.53e5	8.41e5	1.19e6	1.13e6	inactive
CG30094	DRSC27064	3.38e5	2.79e5	9.21e5	4.75e5	inactive
CG31075	DRSC16016	1.48e5	1.32e5	2.05e6	2.43e6	inactive
AIMP2	DRSC09877	44686	46289	5.31e5	4.54e5	inactive
AIMP2	DRSC26797	3.03e5	3.05e5	4.29e5	4.51e5	inactive
PCID2	DRSC10822	7.52e5	6.83e5	1.29e6	1.61e6	inactive
PCID2	DRSC29290	8.89e5	5.97e5	1.66e6	1.32e6	inactive
Mms19	DRSC12188	30874	21307	2.74e5	3.03e5	inactive
Mms19	DRSC27172	2.86e5	3.05e5	8.01e5	5.85e5	inactive
CG13323	DRSC06360	3.87e5	2.69e5	2.38e6	1.96e6	inactive
CG40245 (retired record)	DRSC38768	1.16e6	1.12e6	2.92e6	2.13e6	inactive
CG7423	DRSC20044	1.81e5	1.30e5	5.96e5	3.97e5	inactive
GrlHz	DRSC04424	7.45e5	4.46e5	2.01e6	1.15e6	inactive
CG5569	DRSC04514	4.28e5	3.65e5	2.11e6	1.38e6	inactive
Slbp	DRSC16863	1.03e5	96916	2.19e6	2.35e6	active
CG13008	DRSC19527	3.09e5	3.98e5	2.03e6	2.84e6	inactive
CG13008	DRSC19528	5.70e5	4.94e5	3.12e6	3.20e6	inactive
CG14947	DRSC02429	1.41e5	1.79e5	1.16e6	1.59e6	inactive
Gr33a	DRSC02589	2.59e5	1.58e5	1.43e6	9.36e5	inactive
RabX2	DRSC18234	5.31e5	3.02e5	2.67e6	2.38e6	inactive
Srpk79D	DRSC11668	47520	90934	6.46e5	4.98e5	inactive
Srpk79D	DRSC11856	46692	23406	1.78e5	1.79e5	inactive
Srpk79D	DRSC29962	5.63e5	3.31e5	1.50e6	1.14e6	inactive
Srpk79D	DRSC36763					inactive
TotB	DRSC15842	3.33e5	2.89e5	3.14e6	3.13e6	inactive
Pdp1	DRSC08896	21188	8866	31679	32391	inactive
Pdp1	DRSC08897	1968	4457	14358	18606	active
Pdp1	DRSC11251	2.24e5	2.26e5	1.98e6	2.71e6	inactive
Pdp1	DRSC22973	4.48e5	5.46e5	1.28e6	1.10e6	inactive

Records listed so far whose gene name begins with T or t (2):
gene	DRSC id	firefly reporter light, replicate 1	firefly reporter light, replicate 2	Renilla control light, replicate 1	Renilla control light, replicate 2	Outcome
Tsp26A	DRSC03135	2.88e5	1.84e5	2.70e6	1.82e6	inactive
TotB	DRSC15842	3.33e5	2.89e5	3.14e6	3.13e6	inactive
